Experimental data: PubChem BioAssay AID1259405 (NCATS, 2018)
The whole screen tested about 50,000 reagents; below is a random part of them. About 4,000 of all reagents (8%) count as active. 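Mouse siRNA library applied to hamster cells; one well for each siRNA.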 The numbers tell different reagents against one gene apart.

Aim: 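Mouse-designed siRNAs used to find CHO productivity engineering targets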 (primary screen)
System: Chinese hamster CHO-K1 ovary cells with stable secreted eGFP expression
Knock-down reagent: single siRNA against mouse genes, 0.8 pmol siRNA per well (2 µl of 400 nM stock)
Timing: 3 days
Measured: 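Percent of the per-plate non-targeting control median for intracellular GFP per well by laser scanning cytometry and for cell viability by ATP luminescence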
Reading the numbers: GFP, % of control: higher = more GFP per well, higher productivity; viability (ATP), % of control: higher = more viable cells (more ATP)
Hit rule: 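a knock-down is called active if GFP reaches 120% or more of non-targeting control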

{"target gene": "Crtc1", "reagent no.": 1, "GFP, % of control": 80.3, "viability (ATP), % of control": 54.8, "outcome": "inactive"}
{"target gene": "Crtc1", "reagent no.": 2, "GFP, % of control": 65.3, "viability (ATP), % of control": 77.8, "outcome": "inactive"}
{"target gene": "Crtc1", "reagent no.": 3, "GFP, % of control": 78.3, "viability (ATP), % of control": 75.1, "outcome": "inactive"}
{"target gene": "Pcnp", "reagent no.": 1, "GFP, % of control": 43.7, "viability (ATP), % of control": 58.4, "outcome": "inactive"}
{"target gene": "Pcnp", "reagent no.": 2, "GFP, % of control": 46.4, "viability (ATP), % of control": 60.1, "outcome": "inactive"}
{"target gene": "Pcnp", "reagent no.": 3, "GFP, % of control": 70.2, "viability (ATP), % of control": 91.2, "outcome": "inactive"}
{"target gene": "Neil3", "reagent no.": 1, "GFP, % of control": 97.8, "viability (ATP), % of control": 89.5, "outcome": "inactive"}
{"target gene": "Neil3", "reagent no.": 2, "GFP, % of control": 71.4, "viability (ATP), % of control": 82.8, "outcome": "inactive"}
{"target gene": "Neil3", "reagent no.": 3, "GFP, % of control": 22.5, "viability (ATP), % of control": 51.8, "outcome": "inactive"}
{"target gene": "Gss", "reagent no.": 1, "GFP, % of control": 32, "viability (ATP), % of control": 35.9, "outcome": "inactive"}
{"target gene": "Gss", "reagent no.": 2, "GFP, % of control": 91.3, "viability (ATP), % of control": 91, "outcome": "inactive"}
{"target gene": "Gss", "reagent no.": 3, "GFP, % of control": 59.2, "viability (ATP), % of control": 98.8, "outcome": "inactive"}
{"target gene": "St3gal1", "reagent no.": 1, "GFP, % of control": 76.1, "viability (ATP), % of control": 90.8, "outcome": "inactive"}
{"target gene": "St3gal1", "reagent no.": 2, "GFP, % of control": 98.1, "viability (ATP), % of control": 146, "outcome": "inactive"}
{"target gene": "St3gal1", "reagent no.": 3, "GFP, % of control": 92.1, "viability (ATP), % of control": 123, "outcome": "inactive"}
{"target gene": "Sptbn2", "reagent no.": 1, "GFP, % of control": 73.3, "viability (ATP), % of control": 72.6, "outcome": "inactive"}
{"target gene": "Sptbn2", "reagent no.": 2, "GFP, % of control": 76.7, "viability (ATP), % of control": 76.6, "outcome": "inactive"}
{"target gene": "Sptbn2", "reagent no.": 3, "GFP, % of control": 83.2, "viability (ATP), % of control": 82.5, "outcome": "inactive"}
